Screen size: about 320,000 compounds; about 2,100 (0.66%) were called active. Inconclusive results, whose numbers are uncertain, are shown with a selection of clear calls. The call rests on the fitted dose curve; in most records, active means well fitted inhibition curve with a large enough effect in the signal ratio, with a control signal flat (not every such curve was filed as active); inconclusive means small, poorly fitted or top-dose-only effect, or effect the other way, or a change in a side signal; inactive means flat fitted curve, though single readings scatter; the % refers to the signal ratio. Potencies of inconclusive entries are doubtful fits and often do not repeat.
assay: qHTS Assay for Lipid Storage Modulators in Drosophila S3 Cells; details: BODIPY lipid droplet fluorescence, 18-24 h, cells fed with added oleic acid; lipid storage change, negative = inhibition: at 46.1 µM (top of the series) unless noted
Summary of the method: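 Laser-scanning cytometry quantifies lipid droplet accumulation (500–530 nm total intensity; droplet/cell object ratio) in oleic acid-fed (400 uM added) Drosophila S3 cells treated with a concentration series. 20 uM Triacsin C defined 100% inhibition.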
On the % scale 0 is the no-effect control and ±100 the full control effect; potency means the concentration at half of the fitted maximal effect.

Row | Compound | lipid storage change, negative = inhibition | Potency
1 | CCOc1ccccc1C(=O)N[C@H](C(=O)NCc1ccccc1)C(C)C | inconclusive: 23.9% | –
2 | CC(C)C(NC(=O)CSc1ccc(Cl)cc1)C(C)C | – | inconclusive: 1.3 µM [falling, full curve]
3 | C/C(=N/NC(=O)CNC(=O)C1COc2ccccc2O1)c1ccc2c(c1)OCCO2 (stereo unspecified) | inconclusive: 46.8% | –
4 | CC1CCN(Cc2c(C(=O)N/N=C/c3cc(Br)ccc3O)nnn2-c2nonc2N)CC1 | – | inconclusive: 29.1 µM [activator, single point]
5 | COc1ccc(N(C(C)C(=O)N2CCCC2)S(C)(=O)=O)cc1 (stereo unspecified) | inconclusive: -0.504% | –
6 | Cc1ccc(Cc2nnc(SCC(=O)Nc3ccccc3)n(N)c2=O)cc1 | – | inconclusive: 14.6 µM [falling, partial curve]
7 | Cc1ccc(F)cc1NC(=O)Nc1cc(C(C)(C)C)nn1C | – | inconclusive: 6.51 µM [cytotoxic, single point]
8 | N#Cc1ccc(N/N=C/c2cn(-c3ccccc3)nc2-c2ccccc2)c([N+](=O)[O-])c1 | inconclusive: -20.8% | –
9 | Cc1cc(OCC(=O)N2CCC(C(N)=O)CC2)c2c(C)cc(=O)oc2c1 | inconclusive: 33.6% | –
10 | O=C(Nc1ccc(S(=O)(=O)Nc2nccs2)cc1)C1CCCCC1 | inconclusive: 34.1% | –
11 | O=C(NC(O)C(=O)c1ccccc1)c1ccc(F)cc1 (stereo unspecified) | inconclusive: -56.2% | –
12 | Cc1c(/C=C/C(=O)c2ccccc2)cnn1C | inconclusive: 0.0019% | –
13 | O=S1(=O)C=CC(c2ccccc2)C1 (stereo unspecified) | inconclusive: 0.303% | –
14 | CCCN1C(=O)/C(=C2\SC(=S)N(c3c(C)n(C)n(-c4ccccc4)c3=O)C2=O)c2ccccc21 | inconclusive: 23% | –
15 | Cn1c(CNC(=O)c2ccco2)nnc1SCC(=O)Nc1cccc(Br)c1 | inconclusive: 6.24% | –
16 | CC(C)(C)NCC(O)COc1ccc(Br)cc1 (stereo unspecified) | inconclusive: -21.3% [cytotoxic] | –
17 | COc1ccc(-c2nc(CN3CCCC(C(=O)NC4CCCC4)C3)c(C)o2)cc1 (stereo unspecified) | – | inconclusive: 6.51 µM [activator, single point]
18 | COc1ccc(C(=O)NCC(=O)c2ccccc2)cc1 | – | inconclusive: 7.31 µM [activator, partial curve, poor fit]
19 | O=C(COc1ccccc1)NNc1nc2ccccc2s1 | inconclusive: 20.6% | –
20 | C=CCN1C=C2C(=O)C(C)(OC(=O)CCC(=O)OC)C(=O)C(Br)=C2C=C1c1ccc(OC)cc1 (stereo unspecified) | – | inconclusive: 32.6 µM [cytotoxic, single point]
21 | COc1cc(C(=O)NCCCNc2nc3cc(C)cc(C)c3cc2C#N)cc(OC)c1OC | inconclusive: -31.9% | –
22 | NC(=O)NC(c1ccccc1)c1ccccc1 | – | inconclusive: 4.11 µM [activator, single point]
23 | COc1cccc(NC(=O)CN(C)C(=O)Cc2c(C)nc3ccccc3c2C)c1 | – | inconclusive: 1.16 µM [falling, full curve, poor fit]
24 | CCOc1cc(N2CCOCC2)c(OCC)cc1NC(=O)c1ccc(S(C)(=O)=O)cc1 | inconclusive: 2% | –
25 | CCOC(=O)N1CCN(S(=O)(=O)c2ccc(C)c(C)c2)CC1 | inactive | –
26 | O=C(Cn1c(=O)[nH]c2ccccc2c1=O)Nc1ccc2c(c1)OCO2 | – | inconclusive: 29.1 µM [falling, single point]

Given with each value named: part of the list above.
COc1ccc(-c2nc(CN3CCCC(C(=O)NC4CCCC4)C3)c(C)o2)cc1 (stereo unspecified)
  Potency: inconclusive: 6.51 µM [activator, single point]
COc1ccc(C(=O)NCC(=O)c2ccccc2)cc1
  Potency: inconclusive: 7.31 µM [activator, partial curve, poor fit]
O=C(COc1ccccc1)NNc1nc2ccccc2s1
  lipid storage change, negative = inhibition: inconclusive: 20.6%

More entries:

Row | Compound | lipid storage change, negative = inhibition | Potency
27 | COCCn1ccc2c(OCC(=O)NCCc3ccccc3)cccc2c1=O | inconclusive | –
28 | CCC(C)N(C(=O)c1csnn1)C(C(=O)NC1CCCC1)c1c(F)cccc1Cl (stereo unspecified) | – | inconclusive: 1.64 µM [falling, single point]
29 | CCN(CC)S(=O)(=O)c1ccc(C(=O)OCC(=O)N2CCN(C(=O)c3ccco3)CC2)cc1 | inconclusive: 12.4% | –
30 | CCOC(=O)c1c(-c2ccccc2)csc1NC(=O)CSc1nnnn1C | inconclusive: 15.7% | –
31 | CCC(=O)Nc1ccc(S(=O)(=O)NCC2CCCO2)cc1 (stereo unspecified) | – | inconclusive: 6.51 µM [falling, single point]
32 | COc1ccccc1Cn1c(=S)[nH]c2cc(C(=O)N3CCN(c4ccccc4OC)CC3)ccc2c1=O | – | inconclusive: 6.51 µM [activator, partial curve, poor fit]
33 | Cc1nnc(N(Cc2ccco2)C(=O)c2ccno2)s1 | inconclusive: 12.1% | –
34 | COc1ccc(-n2nc(C(=O)O)c3ccccc3c2=O)cc1 | inconclusive: -131% | –
35 | COC(=O)CSc1snnc1-c1ccc(F)cc1 | – | inconclusive: 0.82 µM [falling, partial curve]
36 | CC12CC(NC(=O)N1Cc1ccccc1)c1ccccc1O2 (stereo unspecified) | inconclusive: 1.61% | –
37 | Nc1nc2c(F)c(F)c(F)cc2s1 | inconclusive: -12% | –
38 | CCCCCCn1c(COc2ccccc2F)nnc1SCC(=O)c1c(N)n(C)c(=O)n(C)c1=O | – | inconclusive: 29.1 µM [activator, single point]
39 | Cc1csc2nc(CCNS(=O)(=O)c3cccs3)cn12 | inconclusive: 67.9% | –
40 | O=C(NCCCN1CCCC1=O)c1ccc(S(=O)(=O)Nc2ccccc2F)cc1 | inconclusive: 31.1% [at 0.0737 µM] | –
41 | COc1ccc(Cl)cc1Nc1nc(N2CCCC2)nc(N2CCCC2)n1 | inconclusive: -0.464% | –
42 | COC(=O)c1ccc(/C(O)=C(\C#N)c2nc3ccccc3s2)cc1 | inconclusive: 0.142% | –
43 | CCCn1nnc(NC(=O)c2ccc(OC)cc2)n1 | – | inconclusive: 0.0052 µM [falling, full curve]
44 | Cc1ccc(NC(=S)N2CCN(S(=O)(=O)c3ccccc3)CC2)cc1C | – | inconclusive: 5.8 µM [activator, partial curve]
45 | CC(=O)Nn1c(C)nnc1-n1nc(C)cc1C | inconclusive: -18.4% | –
46 | COc1ccccc1N(C)S(=O)(=O)c1ccc(C(=O)OCC(=O)N2CCCCCC2)cc1 | – | inconclusive: 29.1 µM [activator, single point]
47 | C=CCn1c(Br)nc2c1c(=O)n(C)c(=O)n2C | – | inconclusive: 6.51 µM [activator, partial curve]
48 | COc1ccc(-c2nc(-c3ccccc3OC)no2)cc1OC | inconclusive: 0.556% | –
49 | O=C(COC(=O)c1ccc(O)cc1O)Nc1cccc2ccccc12 | inconclusive: 11.2% | –
50 | Cc1ccc(S(=O)(=O)N2CCOCC2)cc1NC(=O)CSc1nnc(C2CC2)n1C1CC1 | – | inconclusive: 25.9 µM [falling, single point]
51 | CCn1nc(C)c(C2C(C#N)=C(N)OC3=C2C(=O)CCC3)c1C (stereo unspecified) | inconclusive: 6.43% | –
52 | C=CCn1c(C)nc2ccccc2c1=O | inconclusive: 37.1% | –

Row | Compound | lipid storage change, negative = inhibition | Potency
53 | Oc1c(CN2CCCC2)cc(COCc2ccccc2)c2cccnc12 | – | inconclusive: 20.6 µM [cytotoxic, single point]
54 | COc1ccc([C@H](OC)[C@@]2(Cc3ccc(O)cc3)N=C(N)N(C)C2=O)cc1 | inconclusive: 7.23% | –
55 | Cc1nc(S/C(=C/c2ccc(OCc3ccc(C(=O)O)cc3)cc2)C(=O)O)n[nH]1 | – | inconclusive: 0.92 µM [falling, full curve]
56 | Cc1ccc(S(=O)(=O)NCC(C)n2cncn2)cc1C (stereo unspecified) | inconclusive: -22.6% | –
57 | O=C(CSc1nc2ccccc2c(=O)n1CC1CCCO1)Nc1ccccc1Cl (stereo unspecified) | inconclusive: -20.2% | –
58 | c1ccc(CCn2nnnc2CN2CCc3ccccc32)cc1 | – | inconclusive: 6.51 µM [activator, single point]
59 | CC(C)Sc1nc(N)c2c3c(sc2n1)CN(C)CC3 | inconclusive: 59.8% | –
60 | CN1CCN(c2oc(-c3ccco3)nc2S(=O)(=O)c2ccccc2)CC1 | inactive | –
61 | S=c1[nH]nc(C2CCCCC2)n1/N=C/c1ccco1 | inconclusive: -21.3% | –
62 | CCN1CCN(C(=S)c2ccc(OCC(=O)N3CCOCC3)cc2)CC1 | – | inconclusive: 6.51 µM [falling, single point]
63 | Cc1ccccc1NC(=S)N1CCCCCC1 | inconclusive: -59.6% | –
64 | O=C(CC(NC(=O)c1ccccc1Cl)c1ccccc1)NCCc1ccc(Cl)cc1 (stereo unspecified) | inactive | –
65 | COc1ccccc1CNc1ccc2nnc(CCNC(=O)c3ccc(C)cc3)n2n1 | – | inconclusive: 0.0184 µM [activator, partial curve]
66 | CCn1cnnc1SCC(=O)NCC1COc2ccccc2O1 (stereo unspecified) | inconclusive: -12.6% | –
67 | CCOC(=O)C1CCN(C(=O)c2ccc(OCC(=O)Nc3cccc(C(F)(F)F)c3)cc2)CC1 | – | inconclusive: 20.6 µM [falling, single point]
68 | O=C1CN(c2ccccc2Cl)C(=O)CN1c1ccccc1Cl | inconclusive: -48.3% | –
69 | COc1ccc(/C=C2\SC(=S)N(CCC(=O)NC3=NCCS3)C2=O)cc1OC | – | inconclusive: 8.2 µM [activator, partial curve]
70 | CCOc1ccc(Nc2cc(=O)n(C)c(=O)n2C)cc1 | inconclusive: 14.5% | –
71 | CC(OC(=O)/C=C/c1ccccc1)C(=O)NC1CCCCC1C (stereo unspecified) | – | inconclusive: 29.1 µM [falling, single point]
72 | O=C(N=Nc1c(O)[nH]c2ccccc12)c1cccs1 | inactive | –
73 | Cc1ccc(S(=O)(=O)NC(CC(C)C)C(=O)NCCCn2nc(C)cc2C)cc1 (stereo unspecified) | – | inconclusive: 0.461 µM [activator, single point]
74 | Oc1cccc(/C=N/Nc2cc(N3CCCC3)nc(N3CCCC3)n2)c1 | inconclusive: 0.627% | –
75 | CC(=O)C(C)n1cnc2scc(-c3ccc(C)cc3)c2c1=O (stereo unspecified) | – | inconclusive: 29.1 µM [falling, single point]
76 | O=c1[nH]c(/C=C/c2ccc([N+](=O)[O-])cc2)c([N+](=O)[O-])c(=O)[nH]1 | – | inconclusive: 0.146 µM [activator, full curve, poor fit]
